Among the data in article doi:10.1101/2024.05.31.596839 are binding values, retold here.

What all share (assay): ReLo
For assay [1], the target named is T1, SoYb CS domain (Drosophila) (UniProt Q9VL52).
T1 sequence: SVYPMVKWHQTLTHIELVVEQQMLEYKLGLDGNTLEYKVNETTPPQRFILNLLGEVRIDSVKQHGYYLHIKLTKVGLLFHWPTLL

Assay [2] concerns the target T2, BoYb CS_MUT1 (Drosophila) (UniProt Q9VNP5).
T2 sequence: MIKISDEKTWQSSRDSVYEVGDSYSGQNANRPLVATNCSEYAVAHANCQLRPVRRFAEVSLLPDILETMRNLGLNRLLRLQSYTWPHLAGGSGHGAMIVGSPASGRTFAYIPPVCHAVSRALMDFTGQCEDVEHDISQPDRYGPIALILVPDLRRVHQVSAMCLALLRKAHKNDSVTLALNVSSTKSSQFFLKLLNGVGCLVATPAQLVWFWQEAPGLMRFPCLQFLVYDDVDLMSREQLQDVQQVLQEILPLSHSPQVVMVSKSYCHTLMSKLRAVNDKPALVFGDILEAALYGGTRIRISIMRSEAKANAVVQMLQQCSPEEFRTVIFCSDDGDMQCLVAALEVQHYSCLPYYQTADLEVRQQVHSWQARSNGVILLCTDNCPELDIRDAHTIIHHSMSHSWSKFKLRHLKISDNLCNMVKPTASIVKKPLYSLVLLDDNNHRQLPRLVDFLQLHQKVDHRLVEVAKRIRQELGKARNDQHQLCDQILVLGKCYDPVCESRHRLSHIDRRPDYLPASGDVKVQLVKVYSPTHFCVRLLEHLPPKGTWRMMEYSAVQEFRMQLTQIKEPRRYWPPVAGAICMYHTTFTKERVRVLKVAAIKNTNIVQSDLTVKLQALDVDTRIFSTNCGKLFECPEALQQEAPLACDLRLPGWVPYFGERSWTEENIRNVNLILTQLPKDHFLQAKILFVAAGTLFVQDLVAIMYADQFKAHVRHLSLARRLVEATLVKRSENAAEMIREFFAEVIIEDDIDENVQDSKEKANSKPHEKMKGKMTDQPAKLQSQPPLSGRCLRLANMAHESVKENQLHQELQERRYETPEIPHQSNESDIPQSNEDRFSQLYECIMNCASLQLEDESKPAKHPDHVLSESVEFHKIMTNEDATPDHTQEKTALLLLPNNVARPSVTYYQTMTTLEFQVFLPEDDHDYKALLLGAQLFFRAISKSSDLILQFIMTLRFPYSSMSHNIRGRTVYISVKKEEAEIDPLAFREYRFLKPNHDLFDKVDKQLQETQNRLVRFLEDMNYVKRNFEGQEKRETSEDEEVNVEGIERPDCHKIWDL

Assay [3] concerns the target T3, BoYb CS_MUT2 (Drosophila) (UniProt Q9VNP5).
T3 sequence: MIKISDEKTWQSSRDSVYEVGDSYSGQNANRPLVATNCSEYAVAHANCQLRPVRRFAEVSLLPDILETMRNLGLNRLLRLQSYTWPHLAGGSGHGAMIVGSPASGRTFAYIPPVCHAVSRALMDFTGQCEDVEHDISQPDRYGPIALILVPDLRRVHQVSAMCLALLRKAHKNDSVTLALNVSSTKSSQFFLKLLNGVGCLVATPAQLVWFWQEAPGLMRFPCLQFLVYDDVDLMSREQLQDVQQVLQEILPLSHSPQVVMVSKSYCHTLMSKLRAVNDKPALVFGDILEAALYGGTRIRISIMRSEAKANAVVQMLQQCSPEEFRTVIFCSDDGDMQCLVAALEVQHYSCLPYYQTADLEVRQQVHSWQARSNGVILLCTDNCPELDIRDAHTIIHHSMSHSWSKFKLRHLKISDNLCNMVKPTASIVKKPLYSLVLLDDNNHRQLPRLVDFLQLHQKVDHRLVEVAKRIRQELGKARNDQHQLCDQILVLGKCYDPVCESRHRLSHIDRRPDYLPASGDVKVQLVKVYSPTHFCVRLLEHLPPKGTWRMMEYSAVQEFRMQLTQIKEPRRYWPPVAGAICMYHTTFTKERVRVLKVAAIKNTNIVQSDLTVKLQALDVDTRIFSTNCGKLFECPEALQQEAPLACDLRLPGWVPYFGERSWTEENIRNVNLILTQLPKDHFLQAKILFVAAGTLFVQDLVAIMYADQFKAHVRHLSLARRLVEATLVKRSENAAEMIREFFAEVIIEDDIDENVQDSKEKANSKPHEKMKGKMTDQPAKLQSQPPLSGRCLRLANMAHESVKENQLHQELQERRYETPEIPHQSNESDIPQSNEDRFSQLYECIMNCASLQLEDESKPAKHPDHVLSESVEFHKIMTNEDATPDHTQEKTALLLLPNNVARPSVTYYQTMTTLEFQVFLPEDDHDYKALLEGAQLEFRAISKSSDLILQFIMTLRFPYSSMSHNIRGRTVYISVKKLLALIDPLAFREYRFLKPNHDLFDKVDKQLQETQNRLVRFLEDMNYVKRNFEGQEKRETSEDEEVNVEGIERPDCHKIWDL

No constants are given. Whether binding was seen depends on the method and setting. Some results given as binding are weak or reduced against the parent protein; the word gives no strength.

B1: Vret-C (domain or fragment, UniProt Q9VCU7 178-691)
chain: FRPPLVTKDDYKRGSLLATNDPIQRYLNVKYEFALERHDIYKLKDETRIPQVVLHFRSGRTIPLSTVAVTEEDKTKSLLEDGVSKCVVCQNWTDTFCKLCKMPFCNASCFADVAEQHKQACGKGEILNLDEKVGRKYPKPGLPPSGSKVRITAFEQTNVVYVRSADIQIDIAYYTVLTEVMMLGKDASKLQSTPVCGQIVLYKFEGHMSRAMVLNVDNIKEIYVVFIDFGSVEVTQLERLYECSSYLAGLTCYPVAVKLRGVPRRFVGPNIREVMYELDQSLVFNIKYSSREYDTSKGMQVVVMTEIDINRSLNRLFKTILTPVEPSVSDLGYKEDCLPYIPLHCGKNINVVVMDNTFIQCGFIYCTSIDLAYEVTKMQRDIQEYGEKIAKCATYAPPINELCIAKYEGKWRRGLSVELVGDGYPSILFIDYGNIVPTHVTDIRPYPPQFIFPIMTTQLDLIGVPEKPTDEQIKWLDKNYPIGSVITCSEITFDEETNSYSTRIEKLQEFLSLD
As for B1, the binding result in assay [1] is “binds”; in assay [2], “no binding”; in assay [3], “no binding”.
